Results published in paper PMC8632500, “Identification of Conserved and Divergent Strigolactone Receptors in Sugarcane Reveals a Key Residue Crucial for Plant Branching Control” (Frontiers in Plant Science, 2021).
No constants are given. Whether binding was seen depends on the method and setting. A result given as binding can be weak or reduced; the word gives no strength. Sequences can lack the tags named with a protein.

Target: BD-SsD14bP304R (Saccharum spontaneum)
Experiment: two-hybrid; yeast AH109; D14 proteins as GAL4-BD baits, MAX2/D3 and SMXL7/D53 as GAL4-AD preys; serial 10-fold dilutions spotted on selective medium (SD/-Leu/-Trp/-His/-Ala as printed) with 5 μM rac-GR24 or DMSO; 4 days at 30°C

binding: binds
B1: AD-AtMAX2 (Arabidopsis thaliana MORE AXILLARY GROWTH2 fused to GAL4-AD) (protein, UniProt Q9SIM9 1-693)
chain: MASTTLSDLPDVILSTISSLVSDSRARNSLSLVSHKFLALERSTRSHLTIRGNARDLSLVPDCFRSISHLDLSFLSPWGHTLLASLPIDHQNLLALRLKFCFPFVESLNVYTRSPSSLELLLPQWPRIRHIKLLRWHQRASQIPTGGDFVPIFEHCGGFLESLDLSNFYHWTEDLPPVLLRYADVAARLTRLDLLTASFTEGYKSSEIVSITKSCPNLKTFRVACTFDPRYFEFVGDETLSAVATSSPKLTLLHMVDTASLANPRAIPGTEAGDSAVTAGTLIEVFSGLPNLEELVLDVGKDVKHSGVALEALNSKCKKLRVLKLGQFQGVCSATEWRRLDGVALCGGLQSLSIKNSGDLTDMGLVAIGRGCCKLTTFEIQGCENVTVDGLRTMVSLRSKTLTDVRISCCKNLDTAASLKAIEPICDRIKRLHIDCVWSGSEDEEVEGRVETSEADHEEEDDGYERSQKRCKYSFEEEHCSTSDVNGFCSEDRVWEKLEYLSLWINVGEFLTPLPMTGLDDCPNLEEIRIKIEGDCRGKRRPAEPEFGLSCLALYPKLSKMQLDCGDTIGFALTAPPMQMDLSLWERFFLTGIGSLSLSELDYWPPQDRDVNQRSLSLPGAGLLQECLTLRKLFIHGTAHEHFMNFLLRIPNLRDVQLRADYYPAPENDMSTEMRVGSCSRFEDQLNSRNIID
